# According to patent US20240301431:
# Test system: TNF-α
# Assay: binding assay
# Details: 3'-thiol, PBS pH 8.2, 5 mM Mg2+, 37 C, purified recombinant protein, single-stranded DNA
sequence,measurement,setting,value
ACCTGGGGGAGTATTGCGGAGGAAGGTTTTTTTTGGTGGATGGCGCAGTCGGCGACAATTTTTTT [Au-Apt (TNF-α/ATP fused aptamer on gold nanoparticle)],binding result,"conjugated to ~15 nm gold nanoparticle (53 aptamers per particle), TNF-α capture by centrifugation, supernatant enzyme immunoassay, 4 h, aptamer:TNF-α 10000:1, not reduced by simple mixing with pPBA",binds
ACCTGGGGGAGTATTGCGGAGGAAGGTTTTTTTTGACTTGGTGCAGACGATGGCAGGGTTTTTTT [Au-Ctrl-ATP-pPBA],binding result,"conjugated to gold nanoparticle, coated with poly(phenylboronic acid) via ATP, no TNF-α capture with or without 100 uM H2O2",no binding
ACCTGGGGGAGTATTGCGGAGGAAGGTTTTTTTTGACTTGGTGCAGACGATGGCAGGGTTTTTTT,binding result,"conjugated to ~15 nm gold nanoparticle (44 aptamers per particle), TNF-α capture by centrifugation, supernatant enzyme immunoassay, no capture with or without H2O2",no binding
ACCTGGGGGAGTATTGCGGAGGAAGGTTTTTTTTGGTGGATGGCGCAGTCGGCGACAATTTTTTT [Au-Apt-ATP-pPBA],binding result,"conjugated to gold nanoparticle, coated with poly(phenylboronic acid) via ATP, TNF-α capture remarkably reduced by pPBA coating, restored with 100 uM H2O2",binds more weakly

# For at least one entry, the source does not settle the construct or the ends of the probe. A negative result means that nothing was seen under these conditions. A weaker result is weaker than the reference pair of the same experiment.
